B1: E. coli FtsZ (wild type) [E. coli] / ClpX(E185Q) [E. coli] (parent)
chain 1: MTDKRKDGSGKLLYCSFCGKSQHEVRKLIAGPSVYICDECVDLCNDIIREEIKEVAPHRERSALPTPHEIRNHLDDYVIGQEQAKKVLAVAVYNHYKRLRNGDTSNGVELGKSNILLIGPTGSGKTLLAETLARLLDVPFTMADATTLTEAGYVGEDVENIIQKLLQKCDYDVQKAQRGIVYIDQIDKISRKSDNPSITRDVSGEGVQQALLKLIEGTVAAVPPQGGRKHPQQEFLQVDTSKILFICGGAFAGLDKVISHRVETGSGIGFGATVKAKSDKASEGELLAQVEPEDLIKFGLIPEFIGRLPVVATLNELSEEALIQILKEPKNALTKQYQALFNLEGVDLEFRDEALDAIAKKAMARKTGARGLRSIVEAALLDTMYDLPSMEDVEKVVIDESVIDGQSKPLLIYGKPEAQQASGE
chain 2: MFEPMELTNDAVIKVIGVGGGGGNAVEHMVRERIEGVEFFAVNTDAQALRKTAVGQTIQIGSGITKGLGAGANPEVGRNAADEDRDALRAALEGADMVFIAAGMGGGTGTGAAPVVAEVAKDLGILTVAVVTKPFNFEGKKRMAFAEQGITELSKHVDSLITIPNDKLLKVLGRGISLLDAFGAANDVLKGAVQGIAELITRPGLMNVDFADVRTVMSEMGYAMMGSGVASGEDRAEEAAEMAISSPLLEDIDLSGARGVLVNITAGFDLRLDEFETVGNTIRAFASDNATVVIGTSLDPDMNDELRVTVVATGIGMDKRPEITLVTNKQVQQPVMDRYQQHGMAPLTQEQKPVAKVVNDNAPQTAKEPDYLDIPAFLRKQAD

Variants of B1 are the subject of the first test. Kind of test: co-pelleting assay (Coomassie-stained SDS-PAGE, densitometry). The note with it: with ClpX(E185Q) [E. coli]; 1.5 pmol ClpX(E185Q); in the presence of GTP; parent: 6.5; read off a plot.
For the variant chain 2 K356A V357A V358A, the response (fmol ClpX(E185Q) / pmol FtsZ) was determined as 1.8.

Staying with this test, now noted: with ClpX(E185Q) [E. coli]; 5 pmol ClpX(E185Q); in the presence of GTP; parent: 22; read off a plot.
Take chain 2 K356A V357A V358A: the response (fmol ClpX(E185Q) / pmol FtsZ) was determined as 24.

The test is the same for the next values; noted with them: with ClpX(E185Q) [E. coli]; 12.5 pmol ClpX(E185Q); in the presence of GTP; parent: 47; read off a plot.
Turning to chain 2 K356A V357A V358A, the response (fmol ClpX(E185Q) / pmol FtsZ) came to 50.
